Laboratory results taken from the supplement of paper PMC10849652.
This is one part of the list.

Protein sequences, listed by entry. Tags and fused reporters are not part of them. Lines headed by an entry give the natural chain unless they say otherwise; changes in a name come on top.
UniProt Q96G25: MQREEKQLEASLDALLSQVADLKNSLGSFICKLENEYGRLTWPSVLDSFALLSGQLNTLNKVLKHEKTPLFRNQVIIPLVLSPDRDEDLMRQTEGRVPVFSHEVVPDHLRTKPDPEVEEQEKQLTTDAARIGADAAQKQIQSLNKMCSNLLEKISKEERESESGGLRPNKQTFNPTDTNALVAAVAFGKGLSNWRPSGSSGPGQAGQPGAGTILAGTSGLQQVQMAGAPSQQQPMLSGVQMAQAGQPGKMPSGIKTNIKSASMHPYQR
UniProt Q06413, whole entry, looked up: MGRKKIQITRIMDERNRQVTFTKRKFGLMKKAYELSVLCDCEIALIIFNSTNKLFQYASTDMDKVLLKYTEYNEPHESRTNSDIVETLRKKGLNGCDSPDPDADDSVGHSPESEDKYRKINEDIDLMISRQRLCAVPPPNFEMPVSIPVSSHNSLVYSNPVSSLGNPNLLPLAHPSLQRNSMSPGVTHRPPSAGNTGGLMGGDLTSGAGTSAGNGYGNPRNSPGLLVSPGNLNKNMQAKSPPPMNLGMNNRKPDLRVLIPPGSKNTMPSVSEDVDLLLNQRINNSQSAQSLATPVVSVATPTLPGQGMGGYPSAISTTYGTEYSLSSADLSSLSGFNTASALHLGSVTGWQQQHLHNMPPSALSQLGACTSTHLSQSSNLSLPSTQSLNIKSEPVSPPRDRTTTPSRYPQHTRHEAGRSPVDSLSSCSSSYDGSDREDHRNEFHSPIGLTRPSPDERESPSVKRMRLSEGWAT
UniProt Q9Y2X0: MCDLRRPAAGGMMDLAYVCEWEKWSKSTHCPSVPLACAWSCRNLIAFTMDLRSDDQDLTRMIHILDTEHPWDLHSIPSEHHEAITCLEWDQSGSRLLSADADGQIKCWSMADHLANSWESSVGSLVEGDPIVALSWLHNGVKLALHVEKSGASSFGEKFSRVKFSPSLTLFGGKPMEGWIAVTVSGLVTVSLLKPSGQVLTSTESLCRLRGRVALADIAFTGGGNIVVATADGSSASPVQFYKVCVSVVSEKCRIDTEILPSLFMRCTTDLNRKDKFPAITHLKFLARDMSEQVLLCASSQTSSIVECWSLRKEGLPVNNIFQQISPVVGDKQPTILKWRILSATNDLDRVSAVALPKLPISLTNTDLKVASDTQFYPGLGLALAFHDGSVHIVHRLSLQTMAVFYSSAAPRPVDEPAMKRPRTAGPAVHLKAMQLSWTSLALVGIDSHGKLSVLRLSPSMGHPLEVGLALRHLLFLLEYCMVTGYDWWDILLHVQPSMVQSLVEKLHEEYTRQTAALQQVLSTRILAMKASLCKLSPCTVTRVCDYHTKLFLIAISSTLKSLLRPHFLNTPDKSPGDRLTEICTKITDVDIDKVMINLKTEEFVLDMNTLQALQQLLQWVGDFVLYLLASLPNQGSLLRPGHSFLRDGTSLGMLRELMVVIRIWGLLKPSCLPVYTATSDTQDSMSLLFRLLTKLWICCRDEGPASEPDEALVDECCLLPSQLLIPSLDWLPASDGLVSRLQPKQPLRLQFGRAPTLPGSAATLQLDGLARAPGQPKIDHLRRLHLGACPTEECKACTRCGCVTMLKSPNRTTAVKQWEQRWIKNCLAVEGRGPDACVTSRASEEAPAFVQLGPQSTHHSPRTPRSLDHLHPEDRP
UniProt Q6ZWT7: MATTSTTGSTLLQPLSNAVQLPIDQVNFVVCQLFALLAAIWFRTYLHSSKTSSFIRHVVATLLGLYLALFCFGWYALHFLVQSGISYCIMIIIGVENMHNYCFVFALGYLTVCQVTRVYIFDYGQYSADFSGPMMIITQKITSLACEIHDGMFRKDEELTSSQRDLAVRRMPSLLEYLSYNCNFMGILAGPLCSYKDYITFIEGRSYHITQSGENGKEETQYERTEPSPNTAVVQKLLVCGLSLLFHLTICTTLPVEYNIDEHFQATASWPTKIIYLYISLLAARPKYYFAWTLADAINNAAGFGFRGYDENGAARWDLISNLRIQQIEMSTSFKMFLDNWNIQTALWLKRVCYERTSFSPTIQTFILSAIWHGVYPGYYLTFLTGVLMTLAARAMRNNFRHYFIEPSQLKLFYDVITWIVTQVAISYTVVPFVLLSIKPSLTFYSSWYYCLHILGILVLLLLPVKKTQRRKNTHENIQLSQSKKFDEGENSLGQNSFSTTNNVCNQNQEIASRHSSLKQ
UniProt Q96N66: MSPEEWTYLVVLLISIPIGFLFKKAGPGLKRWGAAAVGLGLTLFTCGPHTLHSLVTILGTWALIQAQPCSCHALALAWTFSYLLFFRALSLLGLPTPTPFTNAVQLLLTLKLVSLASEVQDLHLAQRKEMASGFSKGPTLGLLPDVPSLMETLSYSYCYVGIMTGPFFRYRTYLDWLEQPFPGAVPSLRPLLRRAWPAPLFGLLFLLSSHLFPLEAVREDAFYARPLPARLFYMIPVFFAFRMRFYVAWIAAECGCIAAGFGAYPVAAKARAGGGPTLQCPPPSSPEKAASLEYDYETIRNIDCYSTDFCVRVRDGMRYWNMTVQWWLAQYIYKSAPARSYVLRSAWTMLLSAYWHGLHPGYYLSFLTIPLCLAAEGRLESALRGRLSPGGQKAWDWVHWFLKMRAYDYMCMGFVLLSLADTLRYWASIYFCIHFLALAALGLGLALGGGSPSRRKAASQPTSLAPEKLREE
UniProt P49736, whole entry, looked up: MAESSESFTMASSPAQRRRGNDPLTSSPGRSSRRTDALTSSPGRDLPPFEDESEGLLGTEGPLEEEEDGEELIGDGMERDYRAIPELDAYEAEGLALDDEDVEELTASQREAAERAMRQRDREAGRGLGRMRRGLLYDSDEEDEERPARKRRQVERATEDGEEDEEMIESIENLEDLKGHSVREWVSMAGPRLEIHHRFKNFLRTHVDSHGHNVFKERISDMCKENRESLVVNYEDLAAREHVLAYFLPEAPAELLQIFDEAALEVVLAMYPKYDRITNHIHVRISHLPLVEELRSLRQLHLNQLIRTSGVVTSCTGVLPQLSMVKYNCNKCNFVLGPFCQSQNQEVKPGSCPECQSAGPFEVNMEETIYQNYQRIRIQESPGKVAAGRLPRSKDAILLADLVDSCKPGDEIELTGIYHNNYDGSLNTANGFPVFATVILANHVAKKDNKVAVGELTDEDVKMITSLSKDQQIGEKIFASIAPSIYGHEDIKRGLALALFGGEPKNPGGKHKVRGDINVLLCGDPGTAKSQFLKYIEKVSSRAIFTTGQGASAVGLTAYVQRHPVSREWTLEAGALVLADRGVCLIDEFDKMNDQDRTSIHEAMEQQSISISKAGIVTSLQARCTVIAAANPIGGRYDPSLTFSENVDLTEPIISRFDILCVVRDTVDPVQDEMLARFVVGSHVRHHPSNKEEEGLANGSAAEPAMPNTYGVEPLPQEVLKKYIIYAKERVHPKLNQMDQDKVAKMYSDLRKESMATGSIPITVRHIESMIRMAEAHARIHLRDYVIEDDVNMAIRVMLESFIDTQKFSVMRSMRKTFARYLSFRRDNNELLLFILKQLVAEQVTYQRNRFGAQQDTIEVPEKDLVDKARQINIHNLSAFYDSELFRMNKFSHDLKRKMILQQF
UniProt P33993, whole entry, looked up: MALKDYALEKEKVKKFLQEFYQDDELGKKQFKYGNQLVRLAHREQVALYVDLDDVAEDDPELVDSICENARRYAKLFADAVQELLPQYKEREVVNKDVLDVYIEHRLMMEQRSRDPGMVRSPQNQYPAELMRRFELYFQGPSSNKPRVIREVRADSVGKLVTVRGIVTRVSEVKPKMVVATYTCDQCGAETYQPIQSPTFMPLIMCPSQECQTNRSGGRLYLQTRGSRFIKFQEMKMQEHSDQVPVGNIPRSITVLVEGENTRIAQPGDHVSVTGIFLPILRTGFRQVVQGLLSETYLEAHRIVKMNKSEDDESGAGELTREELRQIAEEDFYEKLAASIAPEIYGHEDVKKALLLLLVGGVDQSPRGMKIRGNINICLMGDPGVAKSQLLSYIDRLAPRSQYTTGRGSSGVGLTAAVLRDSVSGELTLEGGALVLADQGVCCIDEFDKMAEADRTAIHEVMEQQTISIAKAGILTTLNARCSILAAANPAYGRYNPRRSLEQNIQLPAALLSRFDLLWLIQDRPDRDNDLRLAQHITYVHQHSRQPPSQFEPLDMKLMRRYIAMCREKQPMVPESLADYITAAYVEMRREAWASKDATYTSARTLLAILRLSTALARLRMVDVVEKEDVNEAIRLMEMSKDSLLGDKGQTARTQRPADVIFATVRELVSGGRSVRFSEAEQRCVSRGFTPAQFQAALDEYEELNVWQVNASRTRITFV
UniProt P50579: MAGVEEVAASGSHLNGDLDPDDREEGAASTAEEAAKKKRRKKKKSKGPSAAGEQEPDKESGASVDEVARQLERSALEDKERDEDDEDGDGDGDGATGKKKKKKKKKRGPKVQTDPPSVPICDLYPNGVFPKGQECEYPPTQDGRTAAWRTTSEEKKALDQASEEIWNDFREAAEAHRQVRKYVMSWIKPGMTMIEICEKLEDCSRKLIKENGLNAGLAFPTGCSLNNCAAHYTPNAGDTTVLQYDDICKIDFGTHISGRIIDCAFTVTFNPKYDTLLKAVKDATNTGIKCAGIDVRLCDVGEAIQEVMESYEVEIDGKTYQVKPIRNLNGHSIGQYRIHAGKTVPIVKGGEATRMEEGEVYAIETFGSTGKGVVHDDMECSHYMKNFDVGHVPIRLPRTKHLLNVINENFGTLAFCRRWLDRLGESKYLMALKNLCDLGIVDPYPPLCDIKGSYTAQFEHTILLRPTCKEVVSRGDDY
UniProt P55081: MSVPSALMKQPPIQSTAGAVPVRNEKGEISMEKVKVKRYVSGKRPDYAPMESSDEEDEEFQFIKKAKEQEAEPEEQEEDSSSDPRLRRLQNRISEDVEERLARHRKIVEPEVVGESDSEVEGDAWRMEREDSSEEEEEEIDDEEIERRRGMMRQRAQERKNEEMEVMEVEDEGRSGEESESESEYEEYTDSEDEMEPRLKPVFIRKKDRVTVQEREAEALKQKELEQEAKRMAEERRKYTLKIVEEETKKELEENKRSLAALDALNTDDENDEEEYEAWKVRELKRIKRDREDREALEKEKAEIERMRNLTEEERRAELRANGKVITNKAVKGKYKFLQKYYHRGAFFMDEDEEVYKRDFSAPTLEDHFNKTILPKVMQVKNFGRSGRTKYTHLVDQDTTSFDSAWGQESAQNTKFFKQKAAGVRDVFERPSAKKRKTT
UniProt Q96IZ6: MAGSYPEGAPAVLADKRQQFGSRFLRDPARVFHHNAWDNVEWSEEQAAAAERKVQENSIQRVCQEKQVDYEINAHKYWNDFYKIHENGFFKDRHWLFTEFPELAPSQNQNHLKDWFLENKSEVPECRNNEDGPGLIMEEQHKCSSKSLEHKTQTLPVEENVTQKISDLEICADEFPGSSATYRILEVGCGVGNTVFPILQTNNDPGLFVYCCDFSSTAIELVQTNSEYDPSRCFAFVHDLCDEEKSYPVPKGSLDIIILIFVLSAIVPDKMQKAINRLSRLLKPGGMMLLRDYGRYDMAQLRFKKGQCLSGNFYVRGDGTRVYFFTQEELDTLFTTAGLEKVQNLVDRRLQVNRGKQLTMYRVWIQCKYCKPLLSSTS
UniProt Q9NRN9: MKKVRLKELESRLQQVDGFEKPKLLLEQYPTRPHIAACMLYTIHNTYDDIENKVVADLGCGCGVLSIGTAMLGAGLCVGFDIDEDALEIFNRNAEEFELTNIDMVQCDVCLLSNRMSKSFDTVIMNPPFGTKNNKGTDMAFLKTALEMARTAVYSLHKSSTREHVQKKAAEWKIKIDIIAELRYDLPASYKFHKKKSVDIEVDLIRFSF
UniProt P43243: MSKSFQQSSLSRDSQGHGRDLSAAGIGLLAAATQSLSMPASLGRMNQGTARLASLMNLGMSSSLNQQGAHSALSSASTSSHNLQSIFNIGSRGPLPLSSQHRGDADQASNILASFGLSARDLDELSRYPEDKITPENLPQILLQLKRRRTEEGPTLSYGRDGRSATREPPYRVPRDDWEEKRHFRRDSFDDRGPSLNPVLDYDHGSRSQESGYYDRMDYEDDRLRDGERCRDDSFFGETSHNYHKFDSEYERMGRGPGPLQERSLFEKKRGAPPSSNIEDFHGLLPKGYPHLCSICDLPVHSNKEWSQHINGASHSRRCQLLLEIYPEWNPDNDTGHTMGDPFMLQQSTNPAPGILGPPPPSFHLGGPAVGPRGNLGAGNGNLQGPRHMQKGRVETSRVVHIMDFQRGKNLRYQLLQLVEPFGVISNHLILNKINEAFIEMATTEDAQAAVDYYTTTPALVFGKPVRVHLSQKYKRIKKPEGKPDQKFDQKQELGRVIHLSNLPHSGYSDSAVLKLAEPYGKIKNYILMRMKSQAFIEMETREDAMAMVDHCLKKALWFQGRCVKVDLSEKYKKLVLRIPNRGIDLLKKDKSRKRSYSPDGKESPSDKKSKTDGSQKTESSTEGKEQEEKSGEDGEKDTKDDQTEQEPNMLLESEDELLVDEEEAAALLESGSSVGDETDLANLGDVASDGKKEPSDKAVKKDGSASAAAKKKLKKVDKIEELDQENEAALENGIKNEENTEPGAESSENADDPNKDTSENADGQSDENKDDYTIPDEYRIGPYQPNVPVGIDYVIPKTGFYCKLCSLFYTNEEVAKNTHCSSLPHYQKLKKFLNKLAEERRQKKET

Tests used:
Assay in all cases: log2 fold change, soluble protein after heating vs DMSO (PISA); higher = thermal stabilisation; K562 lysate, 10 uM; active = over 0.2 and 3.5 SD of the protein, either way, in both replicates (recomputed)
[1] = compound: CCCS(=O)(=O)Nc1ccc(F)c(C(=O)c2c[nH]c3ncc(-c4ccc(Cl)cc4)cc23)c1F [vemurafenib]
Procedure, shortened: (§1)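 Values give the log-two fold change in thermal stability against solvent controls, from duplicates. Crude K562 extract at 1 mg/mL protein, made by dounce homogenisation in PBS pH 7.4 with 1 mM MgCl2, was treated with 10 μM compound for 30 min. After 3 min heating across 48°C-58°C, aliquots were pooled, adjusted to 0.5% NP-40 at 4°C and centrifuged at 21,000xg for 90 min. The supernatant was measured by TMTpro 16plex LC-MS/MS with channel sums equalised.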

[2] = compound: CCCS(=O)(=O)Nc1ccc(F)c(C(=O)c2c[nH]c3ncc(Cl)cc23)c1F
Procedure, shortened: as §1

[3] = compound: CCN(CCCOc1ccc2c(Nc3cc(CC(=O)Nc4cccc(F)c4)[nH]n3)ncnc2c1)CCOP(=O)(O)O [barasertib]
Procedure, shortened: as §1

[4] = compound: CC[C@@H]1C(=O)N(C)c2cnc(Nc3ccc(C(=O)NC4CCN(C)CC4)cc3OC)nc2N1C1CCCC1
Procedure, shortened: as §1

[5] = compound: CC[C@@H]1C(=O)N(C)c2cnc(Nc3ccc(C(=O)N[C@H]4CC[C@H](N5CCN(CC6CC6)CC5)CC4)cc3OC)nc2N1C(C)C [volasertib]
Procedure, shortened: as §1

[6] = compound: CCn1c(C(=O)N(C2CC2)C2CC2)cc2c3c(ncn3C)c(Nc3cc(C)n(C)n3)nc21
Procedure, shortened: as §1

[7] = compound: CCn1cc(-c2ccnc3[nH]c(-c4cccc(CN(C)C)c4)cc23)c(-c2ccc(NC(=O)N(C)C)cc2)n1
Procedure, shortened: as §1

[8] = compound: CN1CCC(CNc2ccc3ncc(-c4cccc(OC(F)(F)F)c4)n3n2)CC1
Procedure, shortened: as §1

[9] = compound: CN1CCN(CCOc2cc(OC3CCOCC3)c3c(Nc4c(Cl)ccc5c4OCO5)ncnc3c2)CC1 [saracatinib]
Procedure, shortened: as §1

[10] = compound: CN1CCN(c2nc(C3=C(c4c[nH]c5ccccc45)C(=O)NC3=O)c3ccccc3n2)CC1 [sotrastaurin]
Procedure, shortened: as §1

[11] = compound: CN1CC[C@H](c2c(O)cc(O)c3c(=O)cc(-c4ccccc4Cl)oc23)[C@H](O)C1 [alvocidib]
Procedure, shortened: as §1

[12] = compound: CN1CCc2c(c3ccccc3n2Cc2ccc(C(=O)NO)cc2)C1 [Tubastatin A]
Procedure, shortened: as §1

[13] = compound: CNC(=O)C1=CC=CC=C1NC2=NC(=NC=C2Cl)NC3=C(C=C(C=C3)N4CCOCC4)OC
Procedure, shortened: as §1

[14] = compound: CNC(=O)c1ccc(Nc2ncc(C(F)(F)F)c(NCc3nccnc3N(C)S(C)(=O)=O)n2)cc1 [defactinib]
Procedure, shortened: as §1

[15] = compound: CNc1nc(-c2ccc3c(N)n[nH]c3c2)cc(N2C[C@@H](C(=O)NC3CCCCC3)CC[C@H]2C)n1
Procedure, shortened: as §1

[16] = compound: COC(=O)N[C@@H](C)CNc1nccc(-c2cn(C(C)C)nc2-c2cc(Cl)cc(NS(C)(=O)=O)c2F)n1 [encorafenib]
Procedure, shortened: as §1

[17] = compound: COC(=O)[C@H](CCSC)NC(=O)C1=C(C=C(C=C1)NC[C@H](CS)N)C2=CC=CC=C2
Procedure, shortened: as §1

[18] = compound: COc1cc(Nc2ncc3c(n2)-c2ccc(Cl)cc2C(c2c(F)cccc2OC)=NC3)ccc1C(=O)O [alisertib]
Procedure, shortened: as §1

[19] = compound: COc1cc2nc(-c3cc(F)ccc3O)nc(N[C@@H]3CNC[C@H]3C(C)(C)O)c2cc1OC
Procedure, shortened: as §1

[20] = compound: COc1cc2ncnc(Nc3ccc(F)c(Cl)c3)c2cc1OCCCN1CCOCC1 [gefitinib]
Procedure, shortened: as §1

Measured: log2 fold change

MED8 isoform 2 (UniProt Q96G25)
inactive: [1] -0.022 | [2] 0.018 | [3] 0.081 | [4] -0.051 | [5] -0.003 | [6] 0.013 | [7] 0.214 | [8] -0.092 | [9] -0.002 | [10] 0.091 | [11] 0.026 | [12] -0.048 | [13] 0.023 | [14] -0.009 | [15] 0.045 | [16] 0.056 | [17] -0.113 | [18] -0.07 | [19] 0.059 | [20] -0.038

MEF2C isoform 5 (UniProt Q06413)
inactive: [1] 0.05 | [2] 0.015 | [3] 0.025 | [4] -0.013 | [5] -0.044 | [6] -0.009 | [7] 0.011 | [8] -0.004 | [9] 0.008 | [10] -0.047 | [11] -0.021 | [12] 0.008 | [13] -0.003 | [14] -0.007 | [15] -0.079 | [16] 0.096 | [17] -0.016 | [18] 0.015 | [19] -0.039 | [20] -0.016

MESD (UniProt Q14696)
inactive: [1] -0.117 | [2] -0.018 | [3] -0.026 | [4] -0.075 | [5] 0.024 | [6] 0.037 | [7] -0.073 | [8] 0.067 | [9] -0.017 | [10] 0.008 | [11] 0.004 | [12] 0 | [13] 0.018 | [14] 0.019 | [15] -0.076 | [16] 0.032 | [17] -0.03 | [18] -0.008 | [19] 0.019 | [20] 0.018

MED16 (UniProt Q9Y2X0)
inactive: [1] -0.059 | [2] 0.008 | [3] -0.113 | [4] -0.04 | [5] -0.036 | [6] 0.056 | [7] 0.177 | [8] -0.189 | [9] -0.014 | [10] -0.018 | [11] 0.01 | [12] -0.093 | [13] 0.02 | [14] -0.014 | [15] 0.004 | [16] -0.011 | [17] 0.038 | [18] -0.015 | [19] -0.004 | [20] 0.019

MBOAT2 (UniProt Q6ZWT7)
inactive: [1] 0.02 | [2] -0.01 | [3] 0.121 | [4] 0.159 | [5] -0.103 | [6] -0.015 | [7] -0.251 | [8] 0.026 | [9] 0.045 | [10] 0.284 | [11] -0.024 | [12] 0 | [13] 0.079 | [14] 0.002 | [15] -0.025 | [16] 0.156 | [17] -0.073 | [18] -0.003 | [19] 0.034 | [20] 0.064

MBOAT7 (UniProt Q96N66)
inactive: [1] -0.035 | [2] 0 | [3] 0.037 | [4] 0.022 | [5] 0.155 | [6] 0.006 | [7] -0.096 | [8] 0.03 | [9] 0.028 | [10] -0.002 | [11] -0.037 | [12] 0.066 | [13] 0.068 | [14] -0.016 | [15] 0.027 | [16] 0.013 | [17] 0.032 | [18] 0.022 | [19] -0.004 | [20] -0.037

MCM2 (UniProt P49736)
inactive: [1] 0.021 | [2] 0.014 | [3] 0.006 | [4] -0.04 | [5] -0.051 | [6] -0.006 | [7] -0.018 | [8] -0.016 | [9] 0.01 | [10] 0.013 | [11] -0.01 | [12] -0.04 | [13] 0.026 | [14] 0.018 | [15] 0.001 | [16] -0.006 | [17] 0.05 | [18] 0.001 | [19] 0.004 | [20] 0

MCM7 (UniProt P33993)
inactive: [1] -0.037 | [2] 0.009 | [3] 0.03 | [4] -0.05 | [5] -0.088 | [6] 0.032 | [7] 0.015 | [8] -0.026 | [9] -0.026 | [10] 0.008 | [11] 0.021 | [12] -0.048 | [13] 0.021 | [14] -0.011 | [15] -0.008 | [16] -0.017 | [17] 0.141 | [18] 0.003 | [19] -0.011 | [20] -0.026

METAP2 (UniProt P50579)
inactive: [1] -0.01 | [2] 0.032 | [3] -0.026 | [4] 0.013 | [5] 0.01 | [6] -0.044 | [7] 0.023 | [8] 0.082 | [9] 0.034 | [10] -0.008 | [11] -0.02 | [12] -0.017 | [13] 0.019 | [14] 0.01 | [15] 0.039 | [16] -0.003 | [17] -0.017 | [18] 0.002 | [19] 0.002 | [20] -0.102

MFAP1 (UniProt P55081)
inactive: [1] 0.006 | [2] -0.039 | [3] -0.032 | [4] 0.137 | [5] 0.047 | [6] 0.012 | [7] -0.038 | [8] 0.043 | [9] -0.008 | [10] -0.045 | [11] -0.036 | [12] -0.041 | [13] 0.03 | [14] -0.031 | [15] -0.009 | [16] 0.034 | [17] -0.022 | [18] 0.026 | [19] -0.009 | [20] 0.067

Reprinted from the listing (4 entries):
MED16 (UniProt Q9Y2X0)
inactive: [1] -0.059 | [2] 0.008 | [3] -0.113 | [4] -0.04 | [5] -0.036 | [6] 0.056 | [7] 0.177 | [8] -0.189 | [9] -0.014 | [10] -0.018 | [11] 0.01 | [12] -0.093 | [13] 0.02 | [14] -0.014 | [15] 0.004 | [16] -0.011 | [17] 0.038 | [18] -0.015 | [19] -0.004 | [20] 0.019

MBOAT2 (UniProt Q6ZWT7)
inactive: [1] 0.02 | [2] -0.01 | [3] 0.121 | [4] 0.159 | [5] -0.103 | [6] -0.015 | [7] -0.251 | [8] 0.026 | [9] 0.045 | [10] 0.284 | [11] -0.024 | [12] 0 | [13] 0.079 | [14] 0.002 | [15] -0.025 | [16] 0.156 | [17] -0.073 | [18] -0.003 | [19] 0.034 | [20] 0.064

MBOAT7 (UniProt Q96N66)
inactive: [1] -0.035 | [2] 0 | [3] 0.037 | [4] 0.022 | [5] 0.155 | [6] 0.006 | [7] -0.096 | [8] 0.03 | [9] 0.028 | [10] -0.002 | [11] -0.037 | [12] 0.066 | [13] 0.068 | [14] -0.016 | [15] 0.027 | [16] 0.013 | [17] 0.032 | [18] 0.022 | [19] -0.004 | [20] -0.037

MCM2 (UniProt P49736)
inactive: [1] 0.021 | [2] 0.014 | [3] 0.006 | [4] -0.04 | [5] -0.051 | [6] -0.006 | [7] -0.018 | [8] -0.016 | [9] 0.01 | [10] 0.013 | [11] -0.01 | [12] -0.04 | [13] 0.026 | [14] 0.018 | [15] 0.001 | [16] -0.006 | [17] 0.05 | [18] 0.001 | [19] 0.004 | [20] 0

(further entries)

MED13L (UniProt Q71F56)
inactive: [1] -0.043 | [2] -0.012 | [3] 0.028 | [4] 0.01 | [5] -0.058 | [6] 0.038 | [7] -0.023 | [8] 0.064 | [9] -0.037 | [10] -0.018 | [11] 0.042 | [12] -0.069 | [13] 0.016 | [14] -0.011 | [15] -0.004 | [16] 0.02 | [17] 0.021 | [18] -0.084 | [19] -0.005 | [20] 0.01

METTL2A (UniProt Q96IZ6)
inactive: [1] 0.073 | [2] 0.058 | [3] 0.023 | [4] -0.046 | [5] -0.015 | [6] -0.011 | [7] 0.06 | [8] -0.113 | [9] -0.004 | [10] 0.011 | [11] 0.023 | [12] -0.079 | [13] 0.058 | [14] 0.019 | [15] -0.028 | [16] -0.007 | [17] 0.055 | [18] -0.057 | [19] 0.029 | [20] 0.04

MAX (UniProt P61244)
inactive: [1] 0.01 | [2] 0.008 | [3] -0.106 | [4] -0.037 | [5] 0.054 | [6] -0.001 | [7] 0.081 | [8] 0.003 | [9] -0.017 | [10] 0.035 | [11] -0.021 | [12] 0.072 | [13] -0.029 | [14] -0.021 | [15] 0.017 | [16] 0.009 | [17] 0.014 | [18] 0.044 | [19] 0.023 | [20] 0.043

METTL5 (UniProt Q9NRN9)
inactive: [1] -0.008 | [2] -0.019 | [3] -0.01 | [4] 0.024 | [5] 0.023 | [6] 0.001 | [7] 0.218 | [8] -0.01 | [9] -0.046 | [10] 0.005 | [11] 0.004 | [12] 0.046 | [13] -0.02 | [14] -0.019 | [15] -0.01 | [16] -0.033 | [17] 0.001 | [18] 0.01 | [19] 0.011 | [20] -0.018

MED14 (UniProt O60244)
inactive: [1] -0.078 | [2] 0.003 | [3] 0.015 | [4] -0.084 | [5] -0.023 | [6] 0.008 | [7] -0.008 | [8] 0.009 | [9] -0.001 | [10] 0.008 | [11] -0.017 | [12] -0.068 | [13] 0.051 | [14] -0.008 | [15] 0.015 | [16] 0.012 | [17] 0.003 | [18] -0.028 | [19] -0.018 | [20] 0.001

MATR3 (UniProt P43243)
inactive: [1] 0.002 | [2] 0.028 | [3] -0.003 | [4] 0.049 | [5] -0.018 | [6] 0.015 | [7] 0.074 | [8] 0.02 | [9] -0.014 | [10] 0.02 | [11] -0.054 | [12] -0.094 | [13] 0.02 | [14] -0.03 | [15] 0.006 | [16] 0.092 | [17] -0.015 | [18] 0.002 | [19] 0.025 | [20] 0.046
